Results are given in words; binding and its absence hold for the method and conditions named.

The target in this test is E. coli DsbA (E. coli) (UniProt P0AEG4). Put plainly: SEC. On the technique in general: Size exclusion chromatography separates by hydrodynamic size, large species first.

B1: E. coli DsbA (enzyme, UniProt P0AEG4 20-208)
chain: AQYEDGKQYTTLEKPVAGAPQVLEFFSFFCPHCYQFEEVLHISDNVKKKLPEGVKMTKYHVNFMGGDLGKDLTQAWAVAMALGVEDKVTVPLFEGVQKTQTIRSASDIRDVFINAGIKGEEYDAAWNSFVVKSLVAQQEKAAADVQLRGVPAMFVNGKYQLNPQGMDTSNMDVFVQQYADTVKYLSEKK
B1: the binding result was “no binding (tested: 1.25 mg ml^-1)”.
